No constants are given. Whether binding was seen depends on the method and setting. In cells and extracts the contact can be indirect. Some binding calls cover weakened binding; strength is not graded here.
Molecular target: T1, KBTBD8 (mouse (endogenous in oocytes)) (UniProt Q3UQV5)
T1 sequence: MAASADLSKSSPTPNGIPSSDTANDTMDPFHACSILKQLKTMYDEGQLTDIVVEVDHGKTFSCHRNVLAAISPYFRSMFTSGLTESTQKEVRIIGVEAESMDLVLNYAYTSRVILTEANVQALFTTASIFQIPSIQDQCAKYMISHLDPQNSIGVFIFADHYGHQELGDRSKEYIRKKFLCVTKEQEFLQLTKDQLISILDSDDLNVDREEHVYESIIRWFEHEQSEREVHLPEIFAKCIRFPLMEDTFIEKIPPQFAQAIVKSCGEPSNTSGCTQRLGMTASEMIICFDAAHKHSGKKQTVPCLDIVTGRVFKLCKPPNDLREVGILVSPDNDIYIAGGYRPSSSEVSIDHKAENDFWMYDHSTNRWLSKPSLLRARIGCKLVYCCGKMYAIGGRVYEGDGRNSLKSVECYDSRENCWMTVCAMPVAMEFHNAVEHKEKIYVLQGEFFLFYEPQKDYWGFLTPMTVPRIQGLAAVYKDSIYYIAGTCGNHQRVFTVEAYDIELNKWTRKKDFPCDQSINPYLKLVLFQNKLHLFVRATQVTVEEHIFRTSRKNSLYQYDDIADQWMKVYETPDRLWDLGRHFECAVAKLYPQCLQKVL
Assay: co-IP; rabbit anti-KBTBD8 or rabbit anti-Cul3 antibody on protein-A/G beads, incubated overnight at 4 °C with pre-cleaned lysate of 600 mouse oocytes; IP buffer 20 mM Tris-HCl pH 8.0, 10 mM EDTA, 1 mM EGTA, 150 mM NaCl, 0.05% Triton X-100, 0.05% NP-40; western blotting with KBTBD8 or Cul3 antibody

Sequences of proteins named here, by UniProt entry; tags and fusion partners are left off.
UniProt Q9JLV5: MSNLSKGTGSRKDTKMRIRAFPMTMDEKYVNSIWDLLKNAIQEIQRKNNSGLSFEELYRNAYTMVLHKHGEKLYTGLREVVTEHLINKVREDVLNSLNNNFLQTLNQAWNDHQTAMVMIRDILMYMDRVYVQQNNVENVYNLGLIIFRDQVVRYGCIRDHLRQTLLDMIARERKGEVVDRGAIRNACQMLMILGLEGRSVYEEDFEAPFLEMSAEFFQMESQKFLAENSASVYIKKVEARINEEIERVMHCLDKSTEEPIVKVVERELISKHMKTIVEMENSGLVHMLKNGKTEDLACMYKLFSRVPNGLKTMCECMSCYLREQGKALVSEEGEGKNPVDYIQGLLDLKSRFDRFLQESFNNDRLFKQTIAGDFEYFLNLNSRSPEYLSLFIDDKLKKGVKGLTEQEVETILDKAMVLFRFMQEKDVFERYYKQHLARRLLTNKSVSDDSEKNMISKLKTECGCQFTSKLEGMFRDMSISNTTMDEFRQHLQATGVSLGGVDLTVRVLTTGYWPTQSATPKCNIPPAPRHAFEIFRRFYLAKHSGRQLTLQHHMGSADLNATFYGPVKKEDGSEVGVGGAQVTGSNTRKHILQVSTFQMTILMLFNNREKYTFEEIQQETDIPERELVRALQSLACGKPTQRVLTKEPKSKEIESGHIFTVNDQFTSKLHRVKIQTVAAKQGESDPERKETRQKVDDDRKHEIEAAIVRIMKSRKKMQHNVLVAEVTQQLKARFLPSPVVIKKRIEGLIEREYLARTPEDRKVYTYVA

binding: binds
Substance: cul3 (from UniProt Q9JLV5 1-768)
